Record: PubChem BioAssay AID1053208 (Peter MacCallum Cancer Centre, 2014)

- Purpose: 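Find knock-downs that sensitise mouse osteosarcoma cells to doxorubicin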 (primary screen)
- System: mouse osteosarcoma cells, early-passage culture from an engineered mouse model of fibroblastic bone tumour
- Reagents: siRNA pool against mouse genes, 40 nM
- Time to read-out: about 120 h (48 h before drug, then 72 h with drug)
- Challenge: doxorubicin 100 nM for 72 h, roughly 30-40% inhibitory dose
- Detection: 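Luminescent ATP signal taken as viability with or without 100 nM doxorubicin for 72 h; mean of two wells set against non-targeting siRNA and turned into robust z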
- Direction: viability z-score with doxorubicin: higher = more viable cells under doxorubicin; viability z-score without drug: higher = more viable cells with knock-down alone
- Hit rule: 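a pool counts as active when its viability z-score with doxorubicin is -2 or below and its z-score without drug lies between -2 and 2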
The whole screen tested about 17,000 reagents; this is an unselected part. Over the whole deposit, 788 (4.7%) got an active call. 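Calls rest on z-score classes alone; an extra cut-off of viability at most 70% of control was not applied to them.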 Entries without a mark were called inactive. Some reagents were tested in more than one well and are listed for each. Not all columns of the deposit are shown. Reagent sequences are not shown.

no.	target	PubChem SID	combined z-score class	viability z-score with doxorubicin	viability z-score without drug
1	Srrt	SID152317774	no change with or without drug	0.22	-0.17
2	Usp37	SID152320076	no change with or without drug	-0.79	-0.17
3	Defb11	SID152294129	no change with or without drug	1.01	0
4	Haus3	SID152337453	no change with or without drug	-0.22	0.84
5	Armcx1	SID152315194	no change with or without drug	-0.56	-0.84
6	Tra2b	SID152291260	high cell count without drug only	1.12	2.36
7	Tra2b	SID152291260	no change with or without drug	0.9	0.51
8	2310022A10Rik	SID152342719	no change with or without drug	0.22	0.84
9	Rmnd5a	SID152319905	no change with or without drug	0.22	-0.34
10	Gucy1b1	SID152259862	no change with or without drug	0.45	0.17
11	Ccl6	SID152273901	no change with or without drug	-0.56	-0.51
12	Rad9b	SID152304282	no change with or without drug	1.57	1.35
13	Rad9b	SID152309233	no change with or without drug	0.11	0.51
14	Hipk1	SID152331320	no change with or without drug	0.11	1.18
15	Fabp1	SID152307288	no change with or without drug	0.67	0.17
16	Rabac1	SID152330005	no change with or without drug	0.34	0.34
17	Myh6	SID152287491	no change with or without drug	1.24	0
18	Dock7	SID152278150	no change with or without drug	1.12	1.35
19	Psapl1	SID152271631	no change with or without drug	0.9	0.17
20	Ift122	SID152268380	no change with or without drug	-0.9	-0.51
21	Rpl22	SID152298458	no change with or without drug	0	0.17
22	Srrm2	SID152295184	no change with or without drug	0.45	1.18
23	Bst1	SID152337117	no change with or without drug	0.34	1.18
24	Grip1	SID152307203	no change with or without drug	-1.46	-0.34
25	Dkk2	SID152308176	no change with or without drug	-0.45	1.01
26	Ercc8	SID152318109	no change with or without drug	0.9	0.51
27	Mmgt2	SID152259920	no change with or without drug	0.67	-0.17
28	Psmb4	SID152294655	no change with or without drug	-1.69	-0.67
29	Kat7	SID152294756	high cell count with doxorubicin only	2.02	-0.51
30	Ackr3	SID152293729	no change with or without drug	-0.11	-0.84
31	Ccl27a	SID152328046	no change with or without drug	0.67	0
32	Rmnd5b	SID152306021	low cell count with and without drug	-2.36	-3.2
33	Cep57l1	SID152331964	no change with or without drug	0.22	1.35
34	Enkd1	SID152334384	no change with or without drug	-1.12	1.52
35	Tmem268	SID152339223	low cell count with and without drug	-2.36	-3.04
36	Megf9	SID152298462	no change with or without drug	0.45	0.34
37	Erdr1x	SID152260499	no change with or without drug	-1.57	-1.01
38	Cyfip1	SID152324460	low cell count without drug only	0.22	-2.19
39	Chd4	SID152340616	no change with or without drug	0.56	-1.01
40	Pcdhb11	SID152264979	low cell count with and without drug	-3.04	-2.19
41	Cpap	SID152335071	no change with or without drug	-0.45	-1.85
42	Actl7a	SID152303669	no change with or without drug	-0.11	0.84
43	Slc6a5	SID152279561	no change with or without drug	0.45	1.69
44	Gzmb	SID152292590	no change with or without drug	1.35	1.85
45	Klb	SID152293399	no change with or without drug	0.22	0.34
46	Gpi1	SID152325490	no change with or without drug	-0.22	-0.84
47	Ret	SID152339668	no change with or without drug	0	0.84
48	Elk3	SID152277986	high cell count with doxorubicin only	2.47	1.52
49	Naxd	SID152264502	no change with or without drug	1.57	1.35
50	Tmod1	SID152320798	high cell count with and without drug	2.59	3.54
